Experimental data from patent publication US6989435B2, “Compounds and methods to inhibit or augment an inflammatory response” (Cambridge University Technical Services Ltd., priority 1997, dated 2006).
Not every detail of the peptide structures is certain; ends, links or a residue may be inferred. Residues, ends and D or L forms follow the SMILES beside them. No end group written: not given here.

Assays:
[1] = system: IL8 induced THP-1 migration; assay: Trans-well THP-1 migration assay, IL8 as chemoattractant; assay type: cell-based, human; details: Table 4(b); 100 μM peptide; n.s. = no statistically significant inhibition
Description: FIG. 1 is a schematic of the trans-well migration assay. In most experiments, the peptide (wavy line) is added to the upper well with about 50,000 cells (O). The upper and lower wells are separated by a 5 μm or 8 μm pore size PVP-free membrane (- - - -). Chemokine (●) is added to the lower well. After 4 hours, the number of cells that have migrated through the membrane are measured (◯ in lower well).
To determine whether an agent inhibits a chemokine-induced activity, such as macrophage recruitment, varying amounts of the agent are mixed with cells in the presence of a known chemoattractant. For example, a range of known concentrations of an agent, e.g., a chemokine peptide, is incubated with a defined number (e.g., 10^4-10^6) of human THP-1 monocyte cells in individual wells of the top compartment of a trans-well plate. […] A standard curve consisting of a two-fold dilution series of THP-1 cells (in 29 μl) is prepared to accurately quantify the number of cells that have migrated. […] Absorbance of converted dye is measured at a wavelength of 595 nm using an ELISA plate reader. The number of migrated cells in each well is then determined by interpolation of the standard curve (see also Imai et al., J. Biol. Chem., 272, 15036 (1997)). […]

[2] = system: IL8 induced human monocyte migration; assay: Human monocyte migration, IL8 induced; assay type: cell-based; details: Table 4(c); 100 μM peptide; n.s. = no statistically significant inhibition
[3] = system: TGFβ1 induced human monocyte migration; assay: Human monocyte migration, TGFβ1 induced; assay type: cell-based; details: Table 4(c); 100 μM peptide; n.s. = no statistically significant inhibition
Description: Agents may also be screened in a chemotactic assay which employs human neutrophils, eosinophils, mast cells, basophils, platelets, lymphocytes or monocytes. For monocytes, 9 mls of fresh blood are transferred to a tube containing 1 ml of 3.8% sodium citrate, and left at room temperature for 15 minutes. Five mls of this anti-coagulated blood are carefully layered over 3.5 ml Polymorphprep® (Nycomed Pharma, Oslo), and centrifuged at 500 g for 35 minutes per the manufacturer's instructions. The top band at the sample/medium interface contains monocytes. The monocytes are carefully removed with a glass pipette, and reconstituted to the original volume (5 ml). The cells are washed with PBS plus 10% fetal calf serum, and centrifuged at 400 g for 10 minutes. The washing step is repeated three times before the cells are counted. Cells are resuspended at 1×10^7 cells/ml in RPMI-1640+10% fetal calf serum (FCS). The monocytes are cultured for two days at 37° C. in a humidified atmosphere of 5% CO2.
On day 2, the cells are counted, spun down, and reconstituted to 1×10^7 cells/ml in Gey's balanced salt solution+1 mg/ml bovine serum albumin (BSA). […]

SYRRITSSKCPKEAV [Peptide 2]
n.s.: Extent of inhibition of THP-1 migration at 100 μM, IL8 [1] | Extent of inhibition of human monocyte migration at 100 μM, IL8 [2] | Extent of inhibition of human monocyte migration at 100 μM, TGFβ1 [3]

CC[C@H](C)[C@H](NC(=O)[C@H](C)NC(=O)[C@H](CC(=O)O)NC(=O)[C@@H]1CCCN1C(=O)[C@H](CCC(N)=O)NC(=O)[C@H](C)N)C(=O)N[C@@H](CC(N)=O)C(=O)N[C@@H](C)C(=O)N1CCC[C@H]1C(=O)N[C@H](C(=O)N[C@H](C(=O)N[C@@H](CS)C(=O)N[C@@H](CS)C(=O)O)[C@@H](C)O)C(C)C [Peptide 1] (H-AQPDAINAPVTCC-OH)
n.s.: Extent of inhibition of THP-1 migration at 100 μM, IL8 [1] | Extent of inhibition of human monocyte migration at 100 μM, IL8 [2] | Extent of inhibition of human monocyte migration at 100 μM, TGFβ1 [3]
